Results on 42 compounds are retold here after the supplement of paper PMC7024190.

Structures are written as SMILES. Where a name gives a salt, the structure may show the parent alone. The list shows a part of the results. Single values are uncertain here, since repeats match poorly.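 A first-round screen of about ten thousand compounds sought those raising reporter output, using human embryonic kidney cells briefly transfected with a plasmid carrying a Renilla luciferase gene driven by the HSV-TK promoter.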

This experiment has as its system HEK 293FT. Nature of the experiment: log relative Renilla luciferase luminescence (reporter expression vs reference, reference not stated) (log (base not stated)); higher = higher recombinant reporter expression. Particulars: 10 µM; time after transfection 48 h.
In the case of `C[C@]12CC[C@H]3[C@@H](CC[C@@]45O[C@@H]4C(O)=C(C#N)C[C@]35C)[C@@H]1CC[C@@H]2O` [trilostane], the log worked out at 0.103.

In the case of `O=C(N/N=C/c1ccc([N+](=O)[O-])o1)c1cc([N+](=O)[O-])cc([N+](=O)[O-])c1O` [nifursol], the log is -0.173.

Turning to `C=C(C)[C@H]1Cc2c(ccc3c2O[C@@H]2COc4cc(OC)c(OC)cc4[C@@H]2C3=O)O1` [rotenone], the log was -0.932.

Take `COC(=O)C1=CCCN(C)C1` [arecoline hydrobromide]: the log came to 0.121.

For the compound `COc1cc2c(cc1OC)[C@@]13CCN4CC5=CCO[C@H]6CC(=O)N2[C@H]1[C@H]6[C@H]5C[C@H]43` [brucine], the log is -0.11.

Take `CC(C)(C)NCC(O)c1cc(Cl)c(N)c(Cl)c1` (configuration not stated) [clenbuterol hydrochloride]: the log was -0.119.

Consider `COc1cc2c(cc1OC)[C@H](C)NCC2` [salsolidine], for which the log was 0.212.

In the case of `O=C(NC(=O)c1c(F)cccc1F)Nc1cc(Cl)c(OC(F)(F)C(F)C(F)(F)F)cc1Cl` (configuration not stated) [lufenuron], the log is -0.119.

`CNCC(=O)c1ccc(O)c(O)c1` [adrenolone hydrochloride]: the log came out at 0.155.

Regarding `CC[C@@H](c1cccc(O)c1)[C@@H](C)CN(C)C` [tapentadol hydrochloride], the log is 0.119.

As to `CN(C)C(=O)Oc1cc(OC(=O)N(C)C)cc(C(O)CNC(C)(C)C)c1` (configuration not stated) [bambuterol hydrochloride], the log is -0.0868.

In the case of `NCCc1ccc(O)cc1` [tyramine], the log worked out at 0.0398.

Take `C[N+]1(C)[C@@H]2C[C@@H](OC(=O)[C@H](CO)c3ccccc3)C[C@H]1[C@@H]1O[C@@H]12` [methscopolamine bromide]: the log was -0.0623.

In the case of `C[C@]12CC[C@H](O)C[C@@H]1CC[C@@H]1[C@@H]2CC[C@]2(C)C(=O)CC[C@@H]12` [epiandrosterone], the log is -0.00347.

As for `CCn1cc(C(=O)O)c(=O)c2cc3c(cc21)OCO3` [oxolinic acid], the log was -0.126.

For the compound `CCC1(c2ccc(N)cc2)CCC(=O)NC1=O` (configuration not stated) [aminoglutethimide], the log is -0.0274.

As to `CCN(C)C(=O)Oc1cccc([C@H](C)N(C)C)c1` [rivastigmine tartrate], the log was -0.121.

Take `C[C@@H]1O[C@@H](O[C@H]2C[C@@H](O)[C@]3(CO)[C@H]4[C@H](O)C[C@]5(C)[C@@H](C6=CC(=O)OC6)CC[C@]5(O)[C@@H]4CC[C@]3(O)C2)[C@H](O)[C@H](O)[C@H]1O` [ouabain]: the log was -1.85.

Turning to `[N-]=[N+]=CC(=O)OC[C@H](N)C(=O)O` [azaserine], the log was 0.0586.

As for `C[N+]1([O-])[C@@H]2CC[C@H]1C[C@@H](OC(=O)C(CO)c1ccccc1)C2` (some centres not stated) [atropine oxide], the log came to 0.0345.

For the compound `N=C1NC(=O)N2CC12` (configuration not stated) [imexon], the log is 0.18.

For the compound `C[C@]12CC[C@@H]3c4ccc(OC(=O)N(CCCl)CCCl)cc4CC[C@H]3[C@@H]1CC[C@@H]2O` [estramustine], the log amounted to 0.11.

In the case of `COc1ccc(O)c(C(C)(C)C)c1.COc1ccc(O)cc1C(C)(C)C` [butylated hydroxyanisole], the log was -0.0266.

As to `CC(=O)C1CCC2C3CCC4C[C@H](O)CCC4(C)C3C[C@H](O)C12C` (stereo partly drawn) [dihydroxy (3alpha,12alpha)pregnan-20-one], the log was -0.039.

For `O=[N+]([O-])c1cc([As](=O)(O)O)ccc1O` [roxarsone], the log was -0.0347.

On to `C[C@]12C=CC(=O)C=C1CC[C@@H]1[C@@H]2CC[C@]2(C)C(=O)CC[C@@H]12` [androsta-1,4-dien-3,17-dione], for which the log turned out to be 0.183.

Regarding `CC[C@@]1(O)C[C@H](O[C@H]2C[C@H](N(C)C)[C@H](O)[C@H](C)O2)c2c(cc3c(c2O)C(=O)c2c(O)ccc(O)c2C3=O)[C@H]1C(=O)OC` [pyrromycin], the log was -0.603.

`CCN1C[C@]2(COC)[C@H](O)C[C@H](OC)[C@@]34[C@@H]5C[C@@]6(O)[C@H](OC(=O)c7ccccc7)[C@@H]5[C@@](OC(C)=O)([C@@H]([C@H](OC)[C@H]23)[C@@H]14)[C@@H](O)[C@@H]6OC` [aconitine]: the log is 0.191.

Regarding `CC(=O)CC1CCCCN1` (configuration not stated) [pelletierine hydrochloride], the log amounted to 0.252.

`C[C@H]1CC[C@]2(NC1)O[C@H]1C[C@H]3[C@@H]4CC[C@H]5C[C@@H](O[C@@H]6O[C@H](CO)[C@H](O[C@@H]7O[C@H](CO)[C@@H](O)[C@H](O[C@@H]8OC[C@@H](O)[C@H](O)[C@H]8O)[C@H]7O[C@@H]7O[C@H](CO)[C@@H](O)[C@H](O)[C@H]7O)[C@H](O)[C@H]6O)CC[C@]5(C)[C@H]4CC[C@]3(C)[C@H]1[C@@H]2C` [tomatine]: the log stood at 0.0673.

Consider `CC1(C)C(=O)C=C[C@@]2(C)C1=C(O)C(=O)[C@]1(C)[C@@H]2CC[C@@]2(C)[C@H](c3ccoc3)C[C@H]3O[C@]321` [cedrelone], for which the log is -1.39.

Regarding `COc1cc2c(cc1O)C[C@H]1c3c(cc(O)c(OC)c3-2)CCN1C` [boldine], the log is -0.25.

Consider `CCC1(CC)C(=O)NC(=O)NC1=O` [barbital], for which the log was found to be 0.00695.

As for `O=C1CCO1` [propiolactone], the log stood at 0.114.

On to `Cc1c(O)c(O)cc2c1CC=C1[C@@]2(C)CC[C@@]2(C)[C@@H]3C[C@](C)(C(=O)O)CC[C@]3(C)CC[C@]12C` [dihydrocelastrol], for which the log is -0.884.

Consider `C[C@@H]1CC[C@]2(NC1)O[C@H]1C[C@H]3[C@@H]4CC=C5C[C@@H](O)CC[C@]5(C)[C@H]4CC[C@]3(C)[C@H]1[C@@H]2C` [solasodine], for which the log is 0.205.

For the compound `O=C1C(Cl)=C(Cl)C(=O)C(Cl)=C1Cl` [chloranil], the log is -0.178.

For the compound `COc1ccc(OC)c(C(O)C(C)N)c1` (configuration not stated) [methoxamine hydrochloride], the log was -0.0548.

As for `CC([C@H](O)c1ccccc1)N(C)C` (stereo partly drawn) [n-methyl (-)ephedrine [1r,2s]], the log was -0.0235.

For the compound `Cc1ncc(C[n+]2csc(CCO)c2C)c(=O)[nH]1` [oxythiamine chloride hydrochloride], the log worked out at 0.0161.

As for `CCC(=O)O[C@H]1CC[C@H]2[C@@H]3CCC4=CC(=O)CC[C@]4(C)[C@H]3CC[C@]12C` [testosterone propionate], the log was determined as 0.154.

For the compound `COc1cc([C@@H]2c3cc4c(cc3[C@@H](O)[C@H]3COC(=O)[C@H]23)OCO4)cc(OC)c1O` [4'-demethylepipodophyllotoxin], the log is -0.0702.
